Measured values published in PubChem BioAssay AID1508600 (Functional Genomics Laboratory (NCATS/FGL), 2020).
Hit rate of the full screen: of about 53,000 sequences, about 3,700 (7%) were called active.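 Rule for the calls: active = gene knockdowns whose robust z-score for IL-1 alpha signal is at least 2 or at most -2, so actives lie on both sides; inactive = the rest.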 Some of the results follow.

assay: Components of the Cytosolic LPS Sensing Pathway: Gene Identification via Genome-wide siRNA Screen; conditions: RAW264.7 macrophages, IL-1a HTRF, actives lie on both sides, screened at 100 nM (by protocol), cells primed 5 h with Pam3CSK4 first;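 note: robust z of the log signal after scaling to non-targeting control siRNA wells of the plate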
Procedure, shortened: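 RAW264.7; siRNA 100 nM final, RNAiMAX, 48h 37 degrees C; Pam3CSK4 5 h; LipidA + TransIT-TKO 24 h; IL-1a HTRF; CellTiter-Glo viability; robust z vs negative-control median.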

z-score, inactive:
GGCAACAUUAGAAGACAGUTT against Tfb1m -0.591
CGGAGUAACUCAACUAACATT against Tcte2 -1.02
GGUGAACUUGGCAGAGCUGTT against Prdx5 -0.98
GGGUUCAACACAUUCUCUGTT against Vmn1r232 0.808
GGAUAAAUGUCGUUAUAACTT against Zdhhc17 0.129
GGCACUGAAAAUAUAUUUGTT against Cs -0.346
GCUUCUGGUGGUCAUAGCUTT against Kdm8 0.719
GCGACCUUGAAUGGAUUCGTT against Rps29 -0.712
GGAAUGAAGUCUGUCUUCGTT against Zdhhc7 0.648
GGAUAUUUGUCUUCUGGGUTT against Krtap19-9b 0.195
GGUAAUAAUCUCCUAGAGUTT against Bach1 0.285
CCACCAACUACAGAACAUATT against BC016548 -1.27
CGGGAGUAUCUGCUUCAGUTT against Ndufb4 0.336
GCAGUGAUCCGGAACAAAUTT against Tmc3 -0.455
CCAACCUGCGCGACUGCCGTT against Sts -0.0204
CCAGCUCUAGUUUUUAAUCTT against Coq3 0.0426
GCAUCAGAUGGCUAUUUGUTT against Wipi2 1.27
GGUCAGCAGCCCAAACAUUTT against Ubl3 0.513
CCUUGAUGUAGCAGGUUUGTT against Aoc2 1.42
CCCAUCUGAUUGUGCACAUTT against Ctu2 1.47
GGUAAUUGCCAUAGAAAAUTT against Erv3 -1.27
GGAUUUGAGCCUUGUUCCATT against Klk9 1.42
UAGUGAGCAAGGAAUUGGATT against Gm20815 -0.238
GGACCUCAAAGACAACCGGTT against Mri1 -0.434
GGCCUUUUACAAUGGAACCTT against Slc2a9 -0.224
GCAAAAGCUUUACUUAGUATT against Prl3c1 0.555
GGAACACAAUGGGACGAGUTT against Ccl11 -1.12
GGCCGGAUGGCUCCAUUAUTT against Mmp28 -0.0597
GGUCGAAGUGGACAUCUUUTT against Grik4 -0.831
GCCUACAGAGAUCUAUAAUTT against Gmds 0.457
GGAUAACUUUAUGAAUGAGTT against Loxl3 -0.463
GGAUGCUAUUGUGAAUGUGTT against Dnmt3b -0.0135
GGUGCAAGUUUUUCAGUCUTT against Castor2 0.411
GUUUGGAGUGAUGAUUGAGTT against Pla2g2e 0.926
GGCAGAUGGCAAAGAAUUATT against Pbxip1 0.508
GCCUGGUACAGAACCAGUATT against Ntsr2 0.547
GGCUUUGGACAGAAUGUGGTT against Itgam -0.683
CGCCAUCCCAUGUUACUCUTT against Papss2 -0.972
GUAUCAGCCGAGCAACAUCTT against Mrpl34 0.577
GGCCACAUUGUCCUAUCAGTT against Cdh16 0.0595
GGGAGAAGAAAACUGGCUATT against Pnlip -0.957
GGCAACUGUUUCUGCUCCGTT against Ap4e1 -0.746
GCAAAGGUCAGGACUAUUUTT against Qrfpr 0.331
CGGUCCUUUUUAAACACUUTT against Nrbp2 -0.174
CCUUGACCGAGGAAGACAATT against Scgb1b27 0.744
GGUAAUGAGGACAUGGAUCTT against Lyrm4 0.467
GCUAUGGCCAUUAUUGGAGTT against H2-D1 0.657
GGCUUUCUUUCCCAUCGAUTT against Dpf2 -1.65
GGCCUCAGACCUUCUAUGATT against Mtap -0.149
GGGAGAUGCAACAACAAGATT against Epx -0.847
GGUGUGAGUGUAAGUUUAUTT against Wnt16 1.1
GGAGAACAAGGCAAAAGAATT against Mindy4 -0.945
GCCUUGAUAAUGUACGGCATT against Blvra -0.88
GCCCUGAGACCACGAUAUUTT against AF067063 1.48
GGCGAAAAGCCUUUUCCCUTT against Zic1 0.334
CCCAAGACUCGUACACGCATT against Ggn 0.121
GCAGGAGAGUUUUGUUUUUTT against Mterf1a -0.506
CCUUGACUUUAAUUUGAAGTT against Bpifc 0.319
CCACAUGGCUAUUCACUAUTT against Spata7 -0.532
GCAGGACUUACAUGAGAAUTT against Fam13c 0.534
GGAAUGAAAAAGUUCUACATT against Dnajc10 1.1
GGAGCUGUGACUAGGAAUGTT against Abo 1.5
CCUCUAUGAUUUGUAGAACTT against Thap12 0.75
CGACAACCUCAACAACGUGTT against Tom1 -0.377
GGGAUCUGUGUUGAAUGAATT against Fam180a 0.131
GGAGGAAUCUCCAGAAGGUTT against Agap1 -0.694
GCUUGAGAUAAGUGGGUUUTT against Fam98b 0.769
GCACAUGUCAGACACGGCATT against Hdc -1.01
GGUACUUCUGGAAAAGUACTT against Spcs2 0.504
GGAGGAAGAGAUGAUUUUATT against Mia3 0.365
GGAAGCACUUCUGCUUUCUTT against Azin2 -0.0234
CGGUGUACGAGUUAGAGAATT against Crybb3 1.75
GGAGUUUCUAACUAAAUUCTT against 4932411N23Rik 0.513
GGACAUGGCUCUAAAAUUUTT against Maco1 -1.1
GGUUGAGGACGUAAAAAUCTT against Ccdc9b -0.259
GGAUCUUAGCAUGUCAACATT against Zfp330 -1.29
CCUUUAUGGGACACUAUUUTT against Alb 0.588
GGCUUUCAGGUAUUAUAAGTT against Icmt -0.0289
GGAGCCAGCUCUCAAUGAATT against Psme1 0.00366
GCGCAAUAAUCAGACGGUUTT against Zhx2 -0.624
GGCACAAAUAUUCUGUACUTT against Elapor2 1.05
GCACUUACCAGUAUGCGCUTT against Ppp1r16b 0.339
GGCGUAGGUUCUUUACUGGTT against Sgip1 0.893
CCACUGUGUGACAUUAAAGTT against Metap2 -0.799
GGAAAGUGGUGCAUGACUATT against Sfxn1 -1.2
GCUCUUACAUAGAACUUUGTT against Tpbg -0.218
GCAGUUGAAUAUCAGACUGTT against Obox5 -0.973
GCUAGAUUCAAUCAGGUGUTT against 9530068E07Rik -0.455
GGAUUUGACCGGCUAAUACTT against Snrnp40 -0.776
GCAGAUUUACCCUCUAUAATT against Peli2 -1.5
GCUAGACCAGAAGAAAGUATT against Gid8 -1.65
CCUUGUACAACAAUGGUGCTT against Git2 -1.01
GGACUUUGUAUAUUGGUUUTT against Ets2 1.73
CCCAAAAUUGGUCAUGAUUTT against Dync1i1 -0.206
GGAUGAGCUGAAUUUCCUATT against Clec2d -1.17
GGUGGAGUCUGAACUUAAUTT against Nfatc4 -0.0623
GGCCUACUUGGAUGUGGACTT against Rtn3 0.267
GGACUGUCAGUGAUGACUCTT against Hes2 0.854
GGGUAAUUUUAGCAGCGAGTT against Btbd9 -0.822
GGACAAGCAACUGAAUGAGTT against Macrod1 -0.411
CCCACGAGGGAUAUAUCUGTT against Cd3d -0.994
GGAUGUCUUGCUUCACCGUTT against Dstyk -0.674
GGACUCCUACAGGAAACAATT against Kras -1.11
GCGCAGUGAAUCAAAUGUUTT against Asrgl1 0.802

Reprinted at random: 3 records from the list, in no set order.
z-score, inactive:
GCUAGACCAGAAGAAAGUATT against Gid8 -1.65
GGCUUUCUUUCCCAUCGAUTT against Dpf2 -1.65
GGCACAAAUAUUCUGUACUTT against Elapor2 1.05

For convenience, some entries already given:
z-score, inactive:
GGACAUGGCUCUAAAAUUUTT against Maco1 -1.1
GGUUGAGGACGUAAAAAUCTT against Ccdc9b -0.259
GGAUCUUAGCAUGUCAACATT against Zfp330 -1.29
CCUUUAUGGGACACUAUUUTT against Alb 0.588

Following part:

z-score, active:
GGGAUGCUGUCUUCUGUCATT against Prex1 -3.39
CCUUUGAACCUCUAACUUUTT against Xpnpep1 3.62
CCAGACUACGGUGCUAAGATT against Defb21 2.49
